Assay results as given in PubChem BioAssay AID720540 (National Center for Advancing Translational Sciences (NCATS), 2013).
About 460 (35%) of roughly 1,300 compounds were called active. The shares of active, inactive and inconclusive entries below differ from those in the screen. The call rests on the fitted dose curve; in most records, active means well fitted inhibition curve with a large enough effect; inconclusive means small, poorly fitted or top-dose-only effect; inactive means flat fitted curve, though single readings scatter. Where the call is inconclusive, the potency comes from a doubtful curve fit.

By UniProt entry, the sequences of proteins in these tests, tags left out. Where a name states a change or a piece, a line headed by the entry shows the natural chain unless it says otherwise.
UniProt O00167: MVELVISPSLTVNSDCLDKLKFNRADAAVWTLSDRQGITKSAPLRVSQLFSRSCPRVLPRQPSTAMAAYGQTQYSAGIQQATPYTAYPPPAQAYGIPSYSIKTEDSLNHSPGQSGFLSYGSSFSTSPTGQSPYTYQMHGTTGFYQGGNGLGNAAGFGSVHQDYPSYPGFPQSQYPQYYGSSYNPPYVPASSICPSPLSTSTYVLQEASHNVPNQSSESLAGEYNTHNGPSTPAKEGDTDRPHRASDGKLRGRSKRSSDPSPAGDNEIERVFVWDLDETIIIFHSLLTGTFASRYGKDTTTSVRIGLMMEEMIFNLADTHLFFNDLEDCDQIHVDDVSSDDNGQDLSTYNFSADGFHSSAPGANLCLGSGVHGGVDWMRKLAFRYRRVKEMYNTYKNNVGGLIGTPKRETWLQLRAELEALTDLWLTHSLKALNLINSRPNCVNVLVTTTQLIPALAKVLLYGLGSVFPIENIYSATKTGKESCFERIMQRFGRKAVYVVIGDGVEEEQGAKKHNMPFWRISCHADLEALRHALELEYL

molecular target: Protein phosphatase EYA2 (Homo sapiens) (UniProt O00167); assay: qHTS for Inhibitors of the Phosphatase Activity of Eya2: Confirmatory Assay for Cherry-picked Compounds; conditions: purified EYA2 phosphatase activity, qHTS confirmation; activity change, negative = inhibition: at 46.1 µM (top of the series); further: nearly all actives have a fitted effect of over 65% in size;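 on activity change, negative = inhibition: 0% = DMSO wells and -100% = EGTA control giving full inhibition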
How it was run: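 Eya2 (0.2 uM working solution) preincubated 10 min at room temperature with compound in pH 7.5 HEPES buffer with MgCl2, BSA, DTT. OMFP added (50 uM working solution), 10 min more; fluorescence 485/525 nm, normalized to EGTA and DMSO.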
Potency means the concentration at half of the fitted maximal effect.

Activity change, negative = inhibition, inactive:
Cc1cc(Nc2ccc([N+](=O)[O-])cc2)c2ccccc2n1 -15.4%
COc1ccc(CN(CCN(C)C)c2ccccn2)cc1 -3.21%
Cc1nn2c(c1-c1ccccc1)NC1=C(C(=O)CCC1)C2c1ccccc1 (stereo not drawn) -15.1%
Cc1cccc(NC(=S)N(CCN2CCOCC2)Cc2cc3cc4c(cc3[nH]c2=O)OCCO4)c1 -16.9%
CCOC(=O)c1ccc(NC(=O)c2nc[nH]c2C(=O)N[C@@H](Cc2ccccc2)C(=O)OC(C)(C)C)cc1 -19%
Nc1nc2cc3ccccc3cc2[nH]c1=O -10.3%
COc1ccccc1NC(=O)NCCN1CCN(C(=O)Nc2ccccc2OC)CC1 -11.2%
COC(=O)c1ccc(NC(=O)c2ccc3c(c2)C(=O)N(Cc2cccnc2)C3=O)cc1 -19.5%
N=C1/C(=C/c2ccc(-c3cccc(C(=O)O)c3)o2)C(=O)N=C2SC=C(c3ccccc3)N12 -20.3%
CC1Cc2ccccc2N1NC(=O)c1ccc(Cl)c(S(N)(=O)=O)c1 (stereo not drawn) -5.79%
Cn1cc(SCC(=O)Nc2ccc3c(c2)OCCO3)c2ccccc21 -12.8%
Cc1cccc(C#Cc2ccccc2)n1 10.3%
CN(C)c1ccc(-c2ccnc3c2CC(C)(C(=O)NCCC(F)(F)F)O3)cc1 (stereo not drawn) -26.7%
CC(C)(C)NC(=O)c1cccc(NC(=O)c2ccc(NC(=O)c3ccco3)cc2)c1 -21%
N/C(=N\OC(=O)c1ccc2ccccc2c1)c1ccncc1 -24.1%
Cc1cccc(-n2c(O)c(C=Nc3ccccc3)c3ccccc3c2=O)n1 -24.5%
CC1C(c2ccccc2)=Nn2c(=O)n(-c3ccccc3)c(=O)n21 (stereo not drawn) -2.7%
Cc1cc(C(=O)COC(=O)c2cccnc2Cl)c(C)n1-c1c(C)n(C)n(-c2ccccc2)c1=O -6.15%
N#Cc1ccc(C(=O)N2CCC3CC2c2cc(-c4ccccc4)ccc23)cc1 (stereo not drawn) -24.4%
Cc1cc(NC(=O)CSc2nnnn2-c2ccccc2C)no1 -21.9%
NC(=O)c1ccc(NC(=O)COC(=O)/C=C/c2ccc(Br)o2)cc1 -25.7%
CCSc1nnc(-c2ccc(S(=O)(=O)N3CCOCC3)cc2)n1C 2.37%
CCOc1ccc(Br)cc1S(=O)(=O)NC1CC(C)(C)NC(C)(C)C1 -5.16%

Potency, active:
Cc1ccc(C)c2c(/C=C/c3ccc(N(C)C)cc3)ccnc12 5.36 µM
O=C(O)c1ccc2nc(-c3ccco3)c(-c3ccco3)nc2c1 8.49 µM
O=C(CSc1ccc2nnc(-c3ccccn3)n2n1)Nc1ccccc1C(F)(F)F 19 µM
CCc1nnc(NS(=O)(=O)c2ccc(NCc3cc(Cl)cc(Cl)c3O)cc2)s1 2.39 µM
Cc1ccc(Nc2nc(NCCO)nc3c2cnn3C)cc1Cl 7.57 µM
CCOC(=O)Cc1nnc(NC(=O)CSc2nnc3c4ccccc4n(C)c3n2)s1 16.9 µM
CCc1ccc2[nH]c3nc(SCC(=O)NCC4CCCO4)nnc3c2c1 (stereo not drawn) 6.01 µM

Potency, inconclusive:
Cn1c(=O)n(Cc2ccccc2F)c(=O)c2c1nc1n2CCN1Cc1ccco1 19 µM [inhibitor, partial curve]
N#CCC(=O)Nc1ccc(C(=O)Nc2ccc3c(c2)OCO3)cc1 15.1 µM [inhibitor, partial curve]
Cc1nnc(NC(=O)CCSCCC(=O)Nc2nnc(C)s2)s1 15.1 µM [inhibitor, single point]
O=C(Oc1ccc(=O)n(-c2ccccc2)n1)c1ccc(F)cc1 16.9 µM [inhibitor, partial curve]
COCCn1c(C)cc(C(=O)COC(=O)c2ccccc2Br)c1C 21.3 µM [inhibitor, single point]
COc1cccc(C(=O)Nc2cccc(-c3ccc4nncn4n3)c2)c1OC 19 µM [inhibitor, partial curve]
COc1cccc(C=NCC(C)N=Cc2cccc(OC)c2O)c1O (stereo not drawn) 15.1 µM [inhibitor, partial curve]
Cc1nnc(NC(=O)c2ccc(S(=O)(=O)N3CCc4ccccc4C3)cc2)o1 19 µM [inhibitor, single point]
Cc1ccc(CN2CCN(/N=C/c3cccn3C)CC2)c(C)c1 16.9 µM [inhibitor, partial curve]
CCOc1ccc(NC(=O)CSc2ccc(-c3ccccn3)nn2)cc1 1.51 µM [inhibitor, full curve]
O=C1c2ccccc2C(=Cc2cccnc2)c2ccccc21 8.49 µM [inhibitor, partial curve]
COc1cc(/C=C2\SC(=N)N(c3ccc4c(c3)OCO4)C2=O)cc(OC)c1O 8.49 µM [inhibitor, partial curve]
NC(=O)c1ccc(/C=N/O)nc1 21.3 µM [inhibitor, partial curve]
CSc1nnc2c(n1)OC(C)=Nc1ccccc1-2 15.1 µM [inhibitor, partial curve]
Cc1nc2ncccn2c1-c1csc(Nc2ccc(S(N)(=O)=O)cc2)n1 13.5 µM [inhibitor, partial curve]
COC(=O)CSc1nnc(-c2ccccn2)n1N 21.3 µM [inhibitor, single point]
CCc1ccc2nc3nc(C)cc(C)c3c(N)c2c1 13.5 µM [inhibitor, partial curve]
Nc1ccc(N2CCCCC2)c2nonc12 15.1 µM [inhibitor, partial curve]
O=C(/C=C/c1ccccc1[N+](=O)[O-])Nc1cccc(S(=O)(=O)NC2=NCCCCC2)c1 19 µM [inhibitor, partial curve]
O=C(O)c1cccc(NS(=O)(=O)c2cccc(C(=O)Nc3ccccc3[N+](=O)[O-])c2)c1 21.3 µM [inhibitor, single point]
Cc1cc(C)c2c(n1)sc1c(O)cc(=O)[nH]c12 16.9 µM [inhibitor, partial curve]
O=C(O)C1Nc2c(Cl)cc(Cl)c(Cl)c2C2C=CCC12 (stereo not drawn) 19 µM [inhibitor, partial curve]
COC(=O)c1ccc(NC(=O)CSc2nc(=O)n3cccc(C)c3n2)cc1 16.9 µM [inhibitor, partial curve]
O=C(CSc1nnc2c(n1)[nH]c1ccccc12)Nc1cccc(S(=O)(=O)N2CCOCC2)c1 4.26 µM [inhibitor, full curve]
CNc1nc(-c2ccc3c(c2)CCN3C(=O)c2cccc(F)c2)cs1 19 µM [inhibitor, partial curve]
CC(=O)N1CCCc2cc(S(=O)(=O)N3CCCC(C(=O)N4CCN(c5cc(C)ccc5C)CC4)C3)ccc21 (stereo not drawn) 19 µM [inhibitor, single point]
Oc1ccccc1-n1c(-c2ccccc2)ccc1-c1ccccc1 16.9 µM [inhibitor, partial curve]
NS(=O)(=O)c1ccc2c(c1)C1C=CCC1C(C1CC=CCC1)N2 (stereo not drawn) 23.9 µM [inhibitor, single point]
O=C(COc1ccccc1)Nc1nnc(-c2ccco2)o1 19 µM [inhibitor, partial curve]
O=C(Oc1cccnc1)c1ccc([N+](=O)[O-])cc1Cl 19 µM [inhibitor, partial curve]
CC(=O)Nc1ccc(Nc2nc(-c3c(C)nc4ccccn34)cs2)cc1 7.57 µM [inhibitor, partial curve]
CCN(CC)S(=O)(=O)c1cccc(NC(=O)c2cc(-c3cccs3)nn2-c2ccccc2)c1 6.75 µM [inhibitor, partial curve]
CN1CCS/C1=C/C=C1/SC(=S)N(Cc2ccccc2)C1=O 5.36 µM [inhibitor, partial curve]
O=C(Nc1ccccc1)c1ccc2nc(-c3ccco3)c(-c3ccco3)nc2c1 8.49 µM [inhibitor, partial curve]
COc1ccc(S(=O)(=O)N2CCOCC2)cc1C(=O)Nc1cccc(C(=O)NC2CC2)c1 19 µM [inhibitor, partial curve]
O=C(c1cccc(-n2cccc2)c1)N1CCN(S(=O)(=O)c2ccccc2)CC1 16.9 µM [inhibitor, partial curve]
Cc1oc2cc([N+](=O)[O-])c(O)c([N+](=O)[O-])c2c1C(=O)c1ccc(Cl)cc1 19 µM [inhibitor, partial curve]
COC(=O)c1ccc2[nH]c3c(c2c1)CC(C)CC3 (stereo not drawn) 19 µM [inhibitor, partial curve]
COc1ccc(-c2nc(N)ncc2-c2ccc(OC)c(OC)c2)c(O)c1 21.3 µM [inhibitor, single point]
O=C(CNC(=O)c1ccc2ccccc2c1)Nc1ncccc1O 19 µM [inhibitor, partial curve]
N#Cc1nc(COc2ccc(Cl)cc2)oc1N1CCCCCC1 15.1 µM [inhibitor, partial curve]
CN(C)c1ccc(/C=C/c2sc3ccccc3[n+]2Cc2ccccc2)cc1 19 µM [inhibitor, partial curve]
CCC(=O)Nc1nonc1-c1nc2ccccc2n1N(C(=O)CC)C(=O)CC 19 µM [inhibitor, partial curve]

A draw from above in order of length of the SMILES, smallest number first:
Potency, inconclusive:
NS(=O)(=O)c1ccc2c(c1)C1C=CCC1C(C1CC=CCC1)N2 (stereo not drawn) 23.9 µM [inhibitor, single point]
Cc1nnc(NC(=O)c2ccc(S(=O)(=O)N3CCc4ccccc4C3)cc2)o1 19 µM [inhibitor, single point]
COc1cc(/C=C2\SC(=N)N(c3ccc4c(c3)OCO4)C2=O)cc(OC)c1O 8.49 µM [inhibitor, partial curve]
